From paper PMC6307386
These are yes or no findings as the source states them, for the method shown. Binding seen in cells or lysates may run through a third protein. Some binding calls cover weakened binding; strength is not graded here.

Sequences of proteins named here, by UniProt entry; tags and fusion partners are left off.
UniProt Q9BYW2: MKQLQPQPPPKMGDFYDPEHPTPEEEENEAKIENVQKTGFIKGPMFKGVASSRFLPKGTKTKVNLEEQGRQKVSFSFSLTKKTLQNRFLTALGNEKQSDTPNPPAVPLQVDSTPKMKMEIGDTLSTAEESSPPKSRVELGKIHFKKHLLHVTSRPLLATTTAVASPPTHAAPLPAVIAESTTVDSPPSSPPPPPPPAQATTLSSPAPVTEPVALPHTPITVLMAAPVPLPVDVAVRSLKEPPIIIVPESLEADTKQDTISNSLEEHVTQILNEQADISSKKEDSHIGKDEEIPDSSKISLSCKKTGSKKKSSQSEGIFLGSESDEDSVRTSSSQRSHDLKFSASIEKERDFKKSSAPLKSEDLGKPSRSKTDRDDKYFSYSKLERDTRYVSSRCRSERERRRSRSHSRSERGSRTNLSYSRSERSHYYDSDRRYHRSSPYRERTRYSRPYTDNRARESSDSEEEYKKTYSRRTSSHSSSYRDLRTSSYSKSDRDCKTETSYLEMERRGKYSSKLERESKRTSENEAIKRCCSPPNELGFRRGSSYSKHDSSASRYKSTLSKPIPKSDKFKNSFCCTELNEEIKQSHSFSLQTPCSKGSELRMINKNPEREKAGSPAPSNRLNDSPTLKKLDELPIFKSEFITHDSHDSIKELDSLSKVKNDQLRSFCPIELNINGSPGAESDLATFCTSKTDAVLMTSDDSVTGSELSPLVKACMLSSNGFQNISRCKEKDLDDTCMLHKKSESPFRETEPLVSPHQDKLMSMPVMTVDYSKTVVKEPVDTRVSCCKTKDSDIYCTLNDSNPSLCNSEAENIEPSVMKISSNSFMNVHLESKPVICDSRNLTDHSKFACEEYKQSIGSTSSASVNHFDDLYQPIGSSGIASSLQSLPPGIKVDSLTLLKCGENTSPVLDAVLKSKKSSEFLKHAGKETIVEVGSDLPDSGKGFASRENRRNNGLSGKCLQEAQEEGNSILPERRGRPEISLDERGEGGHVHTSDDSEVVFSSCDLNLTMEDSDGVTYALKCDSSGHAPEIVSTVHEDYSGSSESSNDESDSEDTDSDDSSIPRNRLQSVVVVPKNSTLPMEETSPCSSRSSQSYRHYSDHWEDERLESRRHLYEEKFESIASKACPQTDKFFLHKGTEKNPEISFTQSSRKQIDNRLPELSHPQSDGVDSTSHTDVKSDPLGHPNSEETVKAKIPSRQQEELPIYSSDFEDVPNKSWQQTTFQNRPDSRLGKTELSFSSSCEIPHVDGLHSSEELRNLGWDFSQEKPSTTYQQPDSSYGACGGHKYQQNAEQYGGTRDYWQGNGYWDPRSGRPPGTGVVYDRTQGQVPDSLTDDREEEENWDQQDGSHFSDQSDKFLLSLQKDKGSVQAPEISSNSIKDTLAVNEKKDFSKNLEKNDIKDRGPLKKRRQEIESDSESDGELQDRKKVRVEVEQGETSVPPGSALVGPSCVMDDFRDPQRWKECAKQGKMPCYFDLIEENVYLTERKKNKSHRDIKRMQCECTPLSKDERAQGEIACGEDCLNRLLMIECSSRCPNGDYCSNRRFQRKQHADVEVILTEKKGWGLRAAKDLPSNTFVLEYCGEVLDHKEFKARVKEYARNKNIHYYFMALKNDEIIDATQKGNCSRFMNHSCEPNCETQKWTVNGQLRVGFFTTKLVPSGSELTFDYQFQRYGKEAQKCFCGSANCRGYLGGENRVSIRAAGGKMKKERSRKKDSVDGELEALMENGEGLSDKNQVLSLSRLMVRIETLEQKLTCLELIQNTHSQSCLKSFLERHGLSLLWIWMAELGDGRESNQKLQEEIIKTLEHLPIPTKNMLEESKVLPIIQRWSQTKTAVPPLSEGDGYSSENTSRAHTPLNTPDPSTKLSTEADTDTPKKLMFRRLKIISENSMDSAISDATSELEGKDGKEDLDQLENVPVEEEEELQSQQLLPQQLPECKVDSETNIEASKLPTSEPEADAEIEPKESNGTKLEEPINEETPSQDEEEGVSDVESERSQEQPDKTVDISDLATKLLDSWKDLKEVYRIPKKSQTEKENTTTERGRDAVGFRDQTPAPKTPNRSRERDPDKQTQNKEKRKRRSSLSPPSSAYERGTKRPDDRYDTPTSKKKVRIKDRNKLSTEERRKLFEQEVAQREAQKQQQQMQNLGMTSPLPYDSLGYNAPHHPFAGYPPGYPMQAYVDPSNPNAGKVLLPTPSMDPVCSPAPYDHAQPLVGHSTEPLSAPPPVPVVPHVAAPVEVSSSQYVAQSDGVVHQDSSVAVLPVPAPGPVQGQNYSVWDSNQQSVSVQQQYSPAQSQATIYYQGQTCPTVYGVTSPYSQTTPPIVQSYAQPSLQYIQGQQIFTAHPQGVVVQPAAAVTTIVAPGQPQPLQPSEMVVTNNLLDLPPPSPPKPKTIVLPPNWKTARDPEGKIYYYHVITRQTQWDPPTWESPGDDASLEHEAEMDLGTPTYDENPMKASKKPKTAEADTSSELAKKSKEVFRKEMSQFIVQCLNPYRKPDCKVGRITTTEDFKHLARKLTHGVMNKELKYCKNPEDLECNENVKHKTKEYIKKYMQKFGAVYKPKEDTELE

Target: SETD2 (human (endogenous in HBMMSCs)) (UniProt Q9BYW2)
Assay: co-IP; endogenous proteins of HBMMSCs infected with rLV or rLV-miR675 (also with P62 knock-down or rLV-Cas9-P62, or with pGFP-V-RS-KDM4A); IP with anti-SETD2, anti-hMSH6 or anti-SKP2, then western blotting; IgG IP as negative control; procedure by reference 42

binding: binds
Substance: polyubiquitin-binding protein p62 (from UniProt Q13501 1-440)
